From the supplement of paper PMC12819154, “High-throughput peptide-centric local stability assay extends protein–ligand identification to membrane proteins, tissues and bacteria” (Nature Structural & Molecular Biology, 2025)
Some of the results follow. Most values lie at the level of the controls, where differences are scatter.

The chains behind the UniProt entries cited, without tags or fusion partners. Where a name states a change or a piece, a line headed by the entry shows the natural chain unless it says otherwise.
UniProt P16403, whole entry: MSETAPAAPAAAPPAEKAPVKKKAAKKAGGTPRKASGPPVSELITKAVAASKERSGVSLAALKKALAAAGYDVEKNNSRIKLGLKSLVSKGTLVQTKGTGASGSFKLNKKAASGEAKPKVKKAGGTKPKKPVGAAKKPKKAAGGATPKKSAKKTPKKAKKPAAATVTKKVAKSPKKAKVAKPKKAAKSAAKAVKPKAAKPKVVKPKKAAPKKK
UniProt P21695: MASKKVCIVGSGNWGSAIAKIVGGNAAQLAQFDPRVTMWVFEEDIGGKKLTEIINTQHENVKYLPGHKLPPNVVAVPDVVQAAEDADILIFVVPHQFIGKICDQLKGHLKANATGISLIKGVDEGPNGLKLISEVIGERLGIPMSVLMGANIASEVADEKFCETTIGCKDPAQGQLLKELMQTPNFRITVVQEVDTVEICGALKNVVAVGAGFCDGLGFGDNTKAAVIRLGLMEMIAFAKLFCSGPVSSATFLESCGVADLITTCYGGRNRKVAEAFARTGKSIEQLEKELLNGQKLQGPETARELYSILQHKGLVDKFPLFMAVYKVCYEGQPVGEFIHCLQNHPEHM
UniProt P28289: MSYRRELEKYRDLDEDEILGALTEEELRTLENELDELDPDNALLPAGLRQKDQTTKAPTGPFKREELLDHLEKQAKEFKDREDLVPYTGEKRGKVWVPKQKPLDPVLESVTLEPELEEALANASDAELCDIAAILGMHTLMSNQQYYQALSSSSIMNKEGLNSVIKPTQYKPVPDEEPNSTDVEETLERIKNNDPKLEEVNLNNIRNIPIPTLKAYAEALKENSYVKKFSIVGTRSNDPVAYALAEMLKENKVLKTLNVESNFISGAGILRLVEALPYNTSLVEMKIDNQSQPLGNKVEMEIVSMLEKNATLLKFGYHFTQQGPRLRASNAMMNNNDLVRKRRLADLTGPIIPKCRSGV
UniProt P17661, whole entry: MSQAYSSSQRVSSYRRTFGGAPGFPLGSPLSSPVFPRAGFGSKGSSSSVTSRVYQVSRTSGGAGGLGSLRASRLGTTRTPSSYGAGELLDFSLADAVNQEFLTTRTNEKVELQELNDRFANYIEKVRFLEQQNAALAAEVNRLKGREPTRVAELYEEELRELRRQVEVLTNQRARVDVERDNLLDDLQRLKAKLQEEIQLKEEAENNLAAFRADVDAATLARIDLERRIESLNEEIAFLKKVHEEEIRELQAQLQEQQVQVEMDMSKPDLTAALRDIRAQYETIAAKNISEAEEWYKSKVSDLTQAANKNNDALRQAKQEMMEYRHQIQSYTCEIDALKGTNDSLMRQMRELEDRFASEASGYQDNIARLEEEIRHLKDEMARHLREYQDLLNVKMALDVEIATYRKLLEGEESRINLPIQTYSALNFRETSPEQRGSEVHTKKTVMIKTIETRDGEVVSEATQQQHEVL
UniProt P25054, whole entry: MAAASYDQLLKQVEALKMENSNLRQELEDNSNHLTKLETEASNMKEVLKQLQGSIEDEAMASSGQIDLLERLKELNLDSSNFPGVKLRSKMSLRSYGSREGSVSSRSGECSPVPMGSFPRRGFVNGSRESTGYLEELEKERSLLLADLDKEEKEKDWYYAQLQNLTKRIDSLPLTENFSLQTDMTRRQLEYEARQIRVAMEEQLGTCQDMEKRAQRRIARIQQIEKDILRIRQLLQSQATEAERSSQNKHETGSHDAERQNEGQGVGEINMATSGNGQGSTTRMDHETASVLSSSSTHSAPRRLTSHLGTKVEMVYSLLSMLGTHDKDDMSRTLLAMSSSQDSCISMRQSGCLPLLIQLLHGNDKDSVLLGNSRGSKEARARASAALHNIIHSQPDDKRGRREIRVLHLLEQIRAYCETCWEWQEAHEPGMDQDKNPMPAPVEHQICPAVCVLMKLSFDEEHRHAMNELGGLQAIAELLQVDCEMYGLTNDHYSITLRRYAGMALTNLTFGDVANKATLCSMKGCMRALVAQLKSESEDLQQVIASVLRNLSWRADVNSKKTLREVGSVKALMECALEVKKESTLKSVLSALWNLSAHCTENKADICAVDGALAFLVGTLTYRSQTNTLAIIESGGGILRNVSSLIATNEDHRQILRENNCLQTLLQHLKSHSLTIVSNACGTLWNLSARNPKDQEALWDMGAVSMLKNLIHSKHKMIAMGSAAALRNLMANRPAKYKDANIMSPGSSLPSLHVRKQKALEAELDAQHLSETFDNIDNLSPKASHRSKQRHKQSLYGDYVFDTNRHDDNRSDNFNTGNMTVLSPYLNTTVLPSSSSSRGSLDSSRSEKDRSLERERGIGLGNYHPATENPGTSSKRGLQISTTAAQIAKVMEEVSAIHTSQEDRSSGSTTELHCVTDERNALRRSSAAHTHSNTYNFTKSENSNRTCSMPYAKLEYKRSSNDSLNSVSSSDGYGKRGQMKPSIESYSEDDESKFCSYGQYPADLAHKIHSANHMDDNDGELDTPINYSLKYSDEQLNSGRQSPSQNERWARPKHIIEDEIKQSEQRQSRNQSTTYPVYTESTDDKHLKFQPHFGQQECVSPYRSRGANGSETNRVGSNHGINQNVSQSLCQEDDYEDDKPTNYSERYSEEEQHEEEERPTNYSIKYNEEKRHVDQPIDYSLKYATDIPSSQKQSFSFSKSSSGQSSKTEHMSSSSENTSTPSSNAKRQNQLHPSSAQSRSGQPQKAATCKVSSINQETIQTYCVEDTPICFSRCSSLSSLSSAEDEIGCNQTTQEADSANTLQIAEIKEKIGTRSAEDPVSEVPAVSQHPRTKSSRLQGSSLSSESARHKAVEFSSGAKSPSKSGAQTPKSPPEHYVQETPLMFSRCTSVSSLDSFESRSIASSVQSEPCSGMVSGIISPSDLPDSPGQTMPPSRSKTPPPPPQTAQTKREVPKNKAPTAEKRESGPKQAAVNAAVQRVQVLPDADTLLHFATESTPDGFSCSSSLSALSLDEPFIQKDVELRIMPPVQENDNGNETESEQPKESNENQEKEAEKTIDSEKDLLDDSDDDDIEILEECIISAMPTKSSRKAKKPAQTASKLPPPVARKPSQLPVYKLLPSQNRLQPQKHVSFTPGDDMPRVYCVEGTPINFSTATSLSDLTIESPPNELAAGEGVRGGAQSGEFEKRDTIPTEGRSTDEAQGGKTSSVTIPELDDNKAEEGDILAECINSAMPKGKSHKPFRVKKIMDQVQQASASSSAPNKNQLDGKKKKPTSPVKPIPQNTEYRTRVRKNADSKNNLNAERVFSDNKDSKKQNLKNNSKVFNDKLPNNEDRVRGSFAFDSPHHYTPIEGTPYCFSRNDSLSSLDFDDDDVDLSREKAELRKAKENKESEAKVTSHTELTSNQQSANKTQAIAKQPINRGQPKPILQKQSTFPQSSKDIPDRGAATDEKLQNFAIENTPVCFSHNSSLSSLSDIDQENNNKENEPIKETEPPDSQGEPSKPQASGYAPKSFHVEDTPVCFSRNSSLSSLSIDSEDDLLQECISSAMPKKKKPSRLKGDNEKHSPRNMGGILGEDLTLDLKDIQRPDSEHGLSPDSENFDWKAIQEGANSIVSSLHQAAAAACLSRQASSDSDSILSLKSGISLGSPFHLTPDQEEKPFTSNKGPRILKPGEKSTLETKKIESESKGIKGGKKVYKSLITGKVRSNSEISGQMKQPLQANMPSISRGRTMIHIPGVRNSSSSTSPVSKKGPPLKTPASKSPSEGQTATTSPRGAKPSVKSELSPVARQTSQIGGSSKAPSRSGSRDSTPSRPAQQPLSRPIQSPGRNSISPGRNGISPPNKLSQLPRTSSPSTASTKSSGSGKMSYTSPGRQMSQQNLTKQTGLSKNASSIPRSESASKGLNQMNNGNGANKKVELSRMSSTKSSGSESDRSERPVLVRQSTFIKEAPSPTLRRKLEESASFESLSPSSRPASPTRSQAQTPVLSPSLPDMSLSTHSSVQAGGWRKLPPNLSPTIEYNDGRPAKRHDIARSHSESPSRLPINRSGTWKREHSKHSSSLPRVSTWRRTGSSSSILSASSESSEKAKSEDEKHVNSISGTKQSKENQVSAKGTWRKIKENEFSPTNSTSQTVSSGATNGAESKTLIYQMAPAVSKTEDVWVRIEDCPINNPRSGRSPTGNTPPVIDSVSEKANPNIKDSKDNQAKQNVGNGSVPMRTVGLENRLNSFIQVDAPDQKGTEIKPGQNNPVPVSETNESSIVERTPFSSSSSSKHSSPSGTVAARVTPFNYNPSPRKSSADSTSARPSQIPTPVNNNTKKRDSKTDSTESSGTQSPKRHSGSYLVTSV
UniProt P25791: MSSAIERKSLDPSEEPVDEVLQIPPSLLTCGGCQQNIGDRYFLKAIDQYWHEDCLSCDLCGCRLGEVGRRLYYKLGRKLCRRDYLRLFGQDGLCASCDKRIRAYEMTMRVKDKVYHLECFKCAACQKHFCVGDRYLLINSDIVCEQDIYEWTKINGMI
UniProt P17483: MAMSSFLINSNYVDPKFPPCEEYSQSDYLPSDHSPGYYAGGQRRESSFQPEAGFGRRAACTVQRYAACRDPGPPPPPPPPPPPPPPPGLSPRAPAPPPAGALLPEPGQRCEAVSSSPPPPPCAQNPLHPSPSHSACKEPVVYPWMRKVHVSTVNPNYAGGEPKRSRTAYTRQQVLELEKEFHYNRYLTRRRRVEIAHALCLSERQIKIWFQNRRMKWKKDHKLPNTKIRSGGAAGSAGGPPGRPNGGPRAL
UniProt P22531: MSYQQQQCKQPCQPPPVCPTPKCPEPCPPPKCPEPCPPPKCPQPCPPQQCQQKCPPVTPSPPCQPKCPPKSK
UniProt P22676: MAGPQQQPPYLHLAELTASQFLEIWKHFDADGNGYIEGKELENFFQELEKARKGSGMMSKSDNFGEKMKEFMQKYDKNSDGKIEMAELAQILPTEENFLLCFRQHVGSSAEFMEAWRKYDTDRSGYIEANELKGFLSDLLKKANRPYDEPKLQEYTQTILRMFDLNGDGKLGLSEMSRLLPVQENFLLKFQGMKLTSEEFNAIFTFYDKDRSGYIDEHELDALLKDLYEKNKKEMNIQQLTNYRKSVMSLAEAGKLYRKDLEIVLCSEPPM
UniProt P18846: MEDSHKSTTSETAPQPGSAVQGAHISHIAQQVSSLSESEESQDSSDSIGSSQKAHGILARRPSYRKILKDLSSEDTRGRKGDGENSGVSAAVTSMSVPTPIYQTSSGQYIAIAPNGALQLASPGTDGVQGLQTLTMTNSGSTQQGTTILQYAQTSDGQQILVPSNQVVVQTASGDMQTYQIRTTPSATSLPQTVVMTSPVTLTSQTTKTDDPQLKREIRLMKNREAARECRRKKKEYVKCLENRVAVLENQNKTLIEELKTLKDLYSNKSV
UniProt P15336: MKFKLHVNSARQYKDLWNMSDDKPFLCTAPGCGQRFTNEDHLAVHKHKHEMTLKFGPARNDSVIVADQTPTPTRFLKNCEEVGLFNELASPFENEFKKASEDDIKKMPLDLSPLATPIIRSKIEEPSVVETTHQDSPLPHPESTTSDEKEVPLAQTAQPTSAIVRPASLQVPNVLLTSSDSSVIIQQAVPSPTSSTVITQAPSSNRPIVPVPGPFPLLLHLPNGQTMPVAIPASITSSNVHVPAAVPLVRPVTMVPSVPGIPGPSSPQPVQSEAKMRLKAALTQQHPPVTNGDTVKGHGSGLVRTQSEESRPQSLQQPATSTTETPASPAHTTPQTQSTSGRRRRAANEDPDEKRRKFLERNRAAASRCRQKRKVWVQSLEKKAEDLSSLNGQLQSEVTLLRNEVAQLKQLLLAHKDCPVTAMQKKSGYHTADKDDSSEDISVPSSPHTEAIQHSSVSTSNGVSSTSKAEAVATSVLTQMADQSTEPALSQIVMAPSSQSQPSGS
UniProt P26196: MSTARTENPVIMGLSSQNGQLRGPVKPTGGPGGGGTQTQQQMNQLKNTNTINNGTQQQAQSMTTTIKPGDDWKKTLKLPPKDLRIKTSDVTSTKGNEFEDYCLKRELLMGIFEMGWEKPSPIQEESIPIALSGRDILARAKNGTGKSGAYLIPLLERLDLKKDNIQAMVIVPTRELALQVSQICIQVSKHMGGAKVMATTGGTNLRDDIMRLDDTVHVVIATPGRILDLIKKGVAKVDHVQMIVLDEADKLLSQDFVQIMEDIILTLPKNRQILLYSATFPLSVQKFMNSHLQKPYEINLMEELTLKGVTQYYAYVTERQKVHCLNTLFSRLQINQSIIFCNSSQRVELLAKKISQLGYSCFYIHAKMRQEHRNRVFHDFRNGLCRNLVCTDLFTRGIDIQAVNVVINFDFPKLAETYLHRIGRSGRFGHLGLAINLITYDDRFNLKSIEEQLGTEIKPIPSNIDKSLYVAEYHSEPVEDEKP
UniProt P17275: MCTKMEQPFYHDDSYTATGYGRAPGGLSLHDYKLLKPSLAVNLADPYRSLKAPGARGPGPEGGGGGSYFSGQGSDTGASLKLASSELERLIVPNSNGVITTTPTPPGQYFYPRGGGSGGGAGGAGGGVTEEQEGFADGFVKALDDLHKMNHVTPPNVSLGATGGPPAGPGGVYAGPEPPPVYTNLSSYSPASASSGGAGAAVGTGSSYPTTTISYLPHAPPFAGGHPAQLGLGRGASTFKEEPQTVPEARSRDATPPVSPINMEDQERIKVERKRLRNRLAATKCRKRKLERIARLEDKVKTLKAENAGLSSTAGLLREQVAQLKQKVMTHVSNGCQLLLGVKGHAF

compound: CN[C@@H]1C[C@H]2O[C@@](C)([C@@H]1OC)n1c3ccccc3c3c4c(c5c6ccccc6n2c5c31)C(=O)NC4 [staurosporine]; experiment: log2 fold change of tryptic peptide abundance, ligand vs vehicle (limited proteolysis) (log2 ratio); higher = more trypsin-susceptible (destabilized); settings: ligand concentration: 20 uM; sample: K562 cleared lysate; digestion: 4 min, 22 C (HT-PELSA RT4min, Orbitrap Astral)

Target | log2 fold change
ZNF708 (peptide sequence: IVQCDKYVK, peptide start residue: 139) (UniProt P17019) | 0.13
HIST1H1C (peptide sequence: AKKPAAATVTK, peptide start residue: 158) (UniProt P16403) | 0.133
GPD1 (peptide sequence: KLTEIINTQHENVK, peptide start residue: 49) (UniProt P21695) | 0.803
TMOD1 (peptide sequence: EFKDREDLVPYTGEK, peptide start residue: 77) (UniProt P28289) | 0.322
UniProt P17516 (peptide sequence: SKIADGSVKR, peptide start residue: 67) | 0.689
RPL13 (peptide sequence: IAPRPASGPIRPIVR, peptide start residue: 46) (UniProt P26373) | -0.122
TAL1 (peptide sequence: SDPQLEGR, peptide start residue: 12) (UniProt P17542) | -0.115
UniProt P18615 (peptide sequence: GAFSPFGNIIDLSMDPPR, peptide start residue: 278) | -0.148
UniProt P16989 (peptide sequence: VLATKVLGTVKWFNVR, peptide start residue: 86) | 0.726
TGM2 (peptide sequence: LAEKEETGMAMR, peptide start residue: 465) (UniProt P21980) | -0.454
AKR1A1 (peptide sequence: AASCVLLHTGQK, peptide start residue: 2) (UniProt P14550) | -0.507
HK1 (peptide sequence: FNTSDVSAIEK, peptide start residue: 334) (UniProt P19367) | -0.378
CALR (peptide sequence: LKEEEEDKK, peptide start residue: 367) (UniProt P27797) | 0.195
DES (peptide sequence: HLKDEMAR, peptide start residue: 376) (UniProt P17661) | 0.603
APC (peptide sequence: GGAQSGEFEKR, peptide start residue: 1677) (UniProt P25054) | 1.01
ZNF22 (peptide sequence: SFFQSSNLIQHR, peptide start residue: 91) (UniProt P17026) | -0.114
ETS1 (peptide sequence: AAVDLKPTLTIIK, peptide start residue: 3) (UniProt P14921) | -0.381
LMO2 (peptide sequence: AYEMTMR, peptide start residue: 103) (UniProt P25791) | -0.196
HOXB4 (peptide sequence: RVEIAHALCLSER, peptide start residue: 192) (UniProt P17483) | -0.226
UniProt P22531 (peptide sequence: QPCQPPPVCPTPK, peptide start residue: 10) | -0.0952

Target | log2 fold change
CALB2 (peptide sequence: LLPVQENFLLK, peptide start residue: 170) (UniProt P22676) | 0.305
UBA1 (peptide sequence: LAGTQPLEVLEAVQR, peptide start residue: 679) (UniProt P22314) | 0.146
ITPKB (peptide sequence: VWMIDFGK, peptide start residue: 634) (UniProt P27987) | -0.126
PRG2 (peptide sequence: GNLVSIHNFNINYR, peptide start residue: 131) (UniProt P13727) | 0.699
UniProt P17036 (peptide sequence: TSDLIQHQR, peptide start residue: 212) | 0.628
S100A4 (peptide sequence: ALDVMVSTFHK, peptide start residue: 8) (UniProt P26447) | -0.412
VCL (peptide sequence: ELLPVLISAMK, peptide start residue: 200) (UniProt P18206) | 0.286
ATF1 (peptide sequence: DLSSEDTR, peptide start residue: 70) (UniProt P18846) | -0.111
TUBG1 (peptide sequence: LANFIPWGPASIQVALSR, peptide start residue: 345) (UniProt P23258) | -0.398
POR (peptide sequence: IQTLTSSVR, peptide start residue: 57) (UniProt P16435) | 0.157
JUND (peptide sequence: LASPELER, peptide start residue: 71) (UniProt P17535) | -0.211
HNRNPL (peptide sequence: MGPPVGGHR, peptide start residue: 345) (UniProt P14866) | 0.208
EZR (peptide sequence: DDRNEEKR, peptide start residue: 510) (UniProt P15311) | 1.39
BTF3 (peptide sequence: QLTEMLPSILNQLGADSLTSLRR, peptide start residue: 142) (UniProt P20290) | -0.371
ATF2 (peptide sequence: FTNEDHLAVHK, peptide start residue: 36) (UniProt P15336) | 0.26
COMT (peptide sequence: LITIEINPDCAAITQR, peptide start residue: 136) (UniProt P21964) | -0.199
DDX6 (peptide sequence: IKTSDVTSTK, peptide start residue: 85) (UniProt P26196) | 0.347
JUNB (peptide sequence: VMTHVSNGCQLLLGVK, peptide start residue: 328) (UniProt P17275) | -0.879
XPA (peptide sequence: PYSATAAAATGGMANVK, peptide start residue: 47) (UniProt P23025) | 0.356
NME2 (peptide sequence: EISLWFKPEELVDYK, peptide start residue: 129) (UniProt P22392) | -0.0741

Looked up one by one from above (three):
Target | log2 fold change
XPA (peptide sequence: PYSATAAAATGGMANVK, peptide start residue: 47) (UniProt P23025) | 0.356
NME2 (peptide sequence: EISLWFKPEELVDYK, peptide start residue: 129) (UniProt P22392) | -0.0741
ITPKB (peptide sequence: VWMIDFGK, peptide start residue: 634) (UniProt P27987) | -0.126
